In PMC6799953:
Results are given in words; binding and its absence hold for the method and conditions named.

Molecular target: T1, Rad5 (yeast), P32849
T1 chain: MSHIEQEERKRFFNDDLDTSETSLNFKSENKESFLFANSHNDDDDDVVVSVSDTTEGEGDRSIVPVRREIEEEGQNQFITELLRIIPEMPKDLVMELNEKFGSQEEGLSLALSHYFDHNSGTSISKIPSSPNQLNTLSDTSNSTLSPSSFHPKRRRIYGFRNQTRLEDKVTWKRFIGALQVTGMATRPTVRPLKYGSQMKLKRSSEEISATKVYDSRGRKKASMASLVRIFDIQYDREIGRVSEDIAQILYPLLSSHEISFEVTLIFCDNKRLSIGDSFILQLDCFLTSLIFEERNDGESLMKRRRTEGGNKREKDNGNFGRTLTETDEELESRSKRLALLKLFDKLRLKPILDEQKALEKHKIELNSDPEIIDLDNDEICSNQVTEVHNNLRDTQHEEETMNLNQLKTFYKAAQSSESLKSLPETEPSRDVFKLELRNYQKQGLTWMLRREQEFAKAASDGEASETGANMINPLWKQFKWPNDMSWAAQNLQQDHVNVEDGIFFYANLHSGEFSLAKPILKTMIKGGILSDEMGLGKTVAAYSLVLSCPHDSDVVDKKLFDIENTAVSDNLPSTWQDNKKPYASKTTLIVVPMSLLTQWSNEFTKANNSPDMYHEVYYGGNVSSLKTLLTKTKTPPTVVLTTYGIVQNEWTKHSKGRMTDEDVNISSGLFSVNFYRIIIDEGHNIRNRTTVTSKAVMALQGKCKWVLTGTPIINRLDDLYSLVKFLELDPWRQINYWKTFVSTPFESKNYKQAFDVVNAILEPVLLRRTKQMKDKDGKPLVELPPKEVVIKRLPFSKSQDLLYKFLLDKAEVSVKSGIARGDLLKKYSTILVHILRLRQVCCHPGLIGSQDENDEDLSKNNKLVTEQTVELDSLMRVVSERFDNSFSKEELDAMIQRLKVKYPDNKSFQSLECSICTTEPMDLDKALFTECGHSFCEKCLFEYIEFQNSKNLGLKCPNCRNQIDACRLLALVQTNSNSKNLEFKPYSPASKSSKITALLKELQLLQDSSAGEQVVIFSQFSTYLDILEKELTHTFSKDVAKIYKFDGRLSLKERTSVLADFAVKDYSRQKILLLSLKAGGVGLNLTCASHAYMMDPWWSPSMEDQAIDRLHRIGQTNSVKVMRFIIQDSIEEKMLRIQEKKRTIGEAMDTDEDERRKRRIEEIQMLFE
Experiment: SEC-MALS; multi-angle light scattering of purified Rad5 with an A280 trace; molar mass of peak 1 compared with the expected mass of the monomer; conditions not given; both purified
Settings: remark: other sources report otherwise

- binding: no binding
B1: Rad5, P32849 1-1169 (enzyme)
chain: T1 chain
